These are yes or no findings as the source states them, for the method shown. Binding seen in cells or lysates may run through a third protein. Some results given as binding are weak or reduced against the parent protein; the word gives no strength.
Target: T1, Daughterless (Drosophila (endogenous in third instar larval ventral nerve cord)) (UniProt P11420)
T1 sequence: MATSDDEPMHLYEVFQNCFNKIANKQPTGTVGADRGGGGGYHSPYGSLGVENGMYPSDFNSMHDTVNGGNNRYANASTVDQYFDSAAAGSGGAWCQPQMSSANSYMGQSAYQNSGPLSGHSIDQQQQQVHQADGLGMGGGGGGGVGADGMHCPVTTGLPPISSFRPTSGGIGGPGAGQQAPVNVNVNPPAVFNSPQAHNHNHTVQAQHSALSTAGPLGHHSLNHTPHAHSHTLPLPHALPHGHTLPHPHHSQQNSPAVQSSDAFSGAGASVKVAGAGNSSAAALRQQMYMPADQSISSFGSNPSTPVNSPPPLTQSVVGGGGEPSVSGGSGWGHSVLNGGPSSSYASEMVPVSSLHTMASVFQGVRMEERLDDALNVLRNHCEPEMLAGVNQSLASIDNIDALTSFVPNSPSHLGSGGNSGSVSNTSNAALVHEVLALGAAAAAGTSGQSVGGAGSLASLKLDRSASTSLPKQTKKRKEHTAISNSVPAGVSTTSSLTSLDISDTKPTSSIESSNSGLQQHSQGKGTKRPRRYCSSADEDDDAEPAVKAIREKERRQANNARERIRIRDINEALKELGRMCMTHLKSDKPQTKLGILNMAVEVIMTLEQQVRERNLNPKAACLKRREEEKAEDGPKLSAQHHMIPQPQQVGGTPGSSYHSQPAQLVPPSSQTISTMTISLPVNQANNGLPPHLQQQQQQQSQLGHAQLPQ
Experiment: proximity ligation

B1: Extramacrochaete (protein, UniProt P18491 1-199)
chain: MKSLTAVCQTGASGMPALNASGRIQRHPTHRGDGENAEMKMYLSKLKDLVPFMPKNRKLTKLEIIQHVIDYICDLQTELETHPEMGNFDAAAALTAVNGLHEDEDSDMEDADAEAEAEVDPDILAQRLNAEQPAKVSSPAARLPLTDRQTPNTLVAPAHPQQHQQQQQLQLQQQQLQSQQQLSNSLATPQNAEKDSRQS
  binding: binds
